These are yes or no findings as the source states them, for the method shown. In cells and extracts the contact can be indirect. Some entries that bind do so weakly or less than the wild type.
Legend:
Flag-TOP1 = Flag-TOP1 (UniProt P11387); assay: co-IP; Flag-TOP1 and HA-cGAS co-transfected into CC cells; lysate, protein A&G sepharose beads, Western blot
[1] = target: topoisomerase I (TOP1), endogenous (human (endogenous in CC cells)) (UniProt P11387); assay: co-IP; endogenous proteins in CC cells; IP lysis buffer, specific antibody overnight, protein A&G sepharose beads 2 h at 4°C, Western blot; IgG control group

By UniProt entry, the sequences of proteins in these tests, tags left out.
UniProt P11387: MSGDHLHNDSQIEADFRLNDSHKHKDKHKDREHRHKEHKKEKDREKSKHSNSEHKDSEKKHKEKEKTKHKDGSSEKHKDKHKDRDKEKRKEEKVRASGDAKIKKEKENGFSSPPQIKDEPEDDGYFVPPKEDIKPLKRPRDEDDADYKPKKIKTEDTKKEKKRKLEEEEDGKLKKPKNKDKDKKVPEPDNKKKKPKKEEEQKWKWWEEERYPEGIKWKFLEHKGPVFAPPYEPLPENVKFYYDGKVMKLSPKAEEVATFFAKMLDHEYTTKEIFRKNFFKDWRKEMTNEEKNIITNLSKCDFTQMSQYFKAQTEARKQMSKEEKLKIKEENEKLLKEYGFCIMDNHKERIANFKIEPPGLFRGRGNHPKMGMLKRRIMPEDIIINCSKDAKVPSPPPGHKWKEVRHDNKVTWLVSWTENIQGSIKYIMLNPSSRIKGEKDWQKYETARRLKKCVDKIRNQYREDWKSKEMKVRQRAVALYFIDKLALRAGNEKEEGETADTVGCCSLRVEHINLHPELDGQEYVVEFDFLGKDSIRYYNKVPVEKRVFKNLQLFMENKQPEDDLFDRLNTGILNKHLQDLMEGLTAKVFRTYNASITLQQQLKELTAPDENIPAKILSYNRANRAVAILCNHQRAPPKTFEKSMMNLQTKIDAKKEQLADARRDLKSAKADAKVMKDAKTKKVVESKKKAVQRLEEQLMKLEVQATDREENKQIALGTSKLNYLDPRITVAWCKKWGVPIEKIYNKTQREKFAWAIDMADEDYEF
UniProt Q8N884: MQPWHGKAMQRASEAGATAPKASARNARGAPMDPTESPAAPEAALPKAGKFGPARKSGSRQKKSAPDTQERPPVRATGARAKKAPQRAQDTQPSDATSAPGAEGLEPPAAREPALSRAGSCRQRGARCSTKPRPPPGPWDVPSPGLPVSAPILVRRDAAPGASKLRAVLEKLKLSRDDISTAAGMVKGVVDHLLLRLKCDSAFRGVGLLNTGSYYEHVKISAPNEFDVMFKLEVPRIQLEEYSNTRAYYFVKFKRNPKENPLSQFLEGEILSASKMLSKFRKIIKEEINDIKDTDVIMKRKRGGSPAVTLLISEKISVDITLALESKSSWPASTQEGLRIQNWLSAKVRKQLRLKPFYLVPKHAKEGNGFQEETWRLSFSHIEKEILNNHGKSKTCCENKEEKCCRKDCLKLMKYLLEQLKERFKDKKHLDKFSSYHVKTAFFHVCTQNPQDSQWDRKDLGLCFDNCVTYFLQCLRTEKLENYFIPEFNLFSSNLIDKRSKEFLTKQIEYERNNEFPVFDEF

Substance | binding (Flag-TOP1) | binding [1]
HA-cGAS (from UniProt Q8N884 1-522) | binds | –
cyclic GMP-AMP synthase (cGAS), endogenous (from UniProt Q8N884 1-522) | – | binds

Reference: article PMC11327024
